Laboratory results: PubChem BioAssay AID1224830 (NIAID, 2016)
Purpose: 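Regulators of TLR4 signalling towards TNF-alpha in macrophage-like cells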 (primary screen). System: human THP-1 monocytic leukaemia cells, TNF dual-luciferase reporter clone, PMA-differentiated to macrophage-like cells. Reagent: siRNA pool against human genes, 50 nM. Duration: LPS for 4 h, given about 3 days after siRNA transfection. Challenge: bacterial LPS (TLR4 ligand), 10 ng/ml. Measured: 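Ratio of firefly to renilla light, scaled to the plate median and expressed as a robust z-score per replicate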. Reading the numbers: TNF reporter robust z-score: higher = stronger TNF reporter response to LPS. Active means: 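a well is active when its z-score exceeds 2.8 or falls below -1.5; control wells carry no call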.
This is a random part of about 18,000 reagents tested. About 2,900 of all reagents (16%) count as active. 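Calls are made per well; low scores hint the gene aids the LPS response, high scores that it dampens it.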 Repeated entries: four replicate wells of each siRNA pool. Reagent sequences are not shown.

gene	TNF reporter robust z-score	outcome
GPC4 (glypican 4)	0.11	inactive
GPC4 (glypican 4)	0.29	inactive
GPC4 (glypican 4)	-0.36	inactive
GPC4 (glypican 4)	-0.31	inactive
SLC16A12	-1.14	inactive
SLC16A12	-0.83	inactive
SLC16A12	-0.58	inactive
SLC16A12	-0.92	inactive
TNK1 (tyrosine kinase non receptor 1)	-1.39	inactive
TNK1 (tyrosine kinase non receptor 1)	0.29	inactive
TNK1 (tyrosine kinase non receptor 1)	-1.04	inactive
TNK1 (tyrosine kinase non receptor 1)	-1.12	inactive
ST6GALNAC3 (ST6 N-acetylgalactosaminide alpha-2,6-sialyltransferase 3)	-0.69	inactive
ST6GALNAC3 (ST6 N-acetylgalactosaminide alpha-2,6-sialyltransferase 3)	1.47	inactive
ST6GALNAC3 (ST6 N-acetylgalactosaminide alpha-2,6-sialyltransferase 3)	0.48	inactive
ST6GALNAC3 (ST6 N-acetylgalactosaminide alpha-2,6-sialyltransferase 3)	2.61	inactive
RUNX3 (RUNX family transcription factor 3)	0.08	inactive
RUNX3 (RUNX family transcription factor 3)	0.71	inactive
RUNX3 (RUNX family transcription factor 3)	0.52	inactive
RUNX3 (RUNX family transcription factor 3)	0.44	inactive
USP31 (ubiquitin specific peptidase 31)	-0.27	inactive
USP31 (ubiquitin specific peptidase 31)	-0.22	inactive
USP31 (ubiquitin specific peptidase 31)	-0.14	inactive
USP31 (ubiquitin specific peptidase 31)	0.36	inactive
MACROH2A2 (macroH2A.2 histone)	-0.84	inactive
MACROH2A2 (macroH2A.2 histone)	-0.76	inactive
MACROH2A2 (macroH2A.2 histone)	-1.03	inactive
MACROH2A2 (macroH2A.2 histone)	-0.74	inactive
MDK (midkine)	-0.21	inactive
MDK (midkine)	-0.6	inactive
MDK (midkine)	-0.58	inactive
MDK (midkine)	0.21	inactive
WFDC10B (WAP four-disulfide core domain 10B)	-1.02	inactive
WFDC10B (WAP four-disulfide core domain 10B)	-1.47	inactive
WFDC10B (WAP four-disulfide core domain 10B)	-1.04	inactive
WFDC10B (WAP four-disulfide core domain 10B)	-1.05	inactive
ZNF93 (zinc finger protein 93)	-1.21	inactive
ZNF93 (zinc finger protein 93)	-1.55	active
ZNF93 (zinc finger protein 93)	-1.89	active
ZNF93 (zinc finger protein 93)	-1.67	active
RPL7L1 (ribosomal protein L7 like 1)	-1.8	active
RPL7L1 (ribosomal protein L7 like 1)	-1.22	inactive
RPL7L1 (ribosomal protein L7 like 1)	-2.15	active
RPL7L1 (ribosomal protein L7 like 1)	-1.31	inactive
MYEOV (myeloma overexpressed)	1.17	inactive
MYEOV (myeloma overexpressed)	-0.54	inactive
MYEOV (myeloma overexpressed)	-1.2	inactive
MYEOV (myeloma overexpressed)	-0.31	inactive
DUSP9 (dual specificity phosphatase 9)	2.29	inactive
DUSP9 (dual specificity phosphatase 9)	-0.46	inactive
DUSP9 (dual specificity phosphatase 9)	-1.07	inactive
DUSP9 (dual specificity phosphatase 9)	-0.57	inactive
CEACAM3 (CEA cell adhesion molecule 3)	-0.23	inactive
CEACAM3 (CEA cell adhesion molecule 3)	-1.42	inactive
CEACAM3 (CEA cell adhesion molecule 3)	-1.21	inactive
CEACAM3 (CEA cell adhesion molecule 3)	-0.36	inactive
SHMT2 (serine hydroxymethyltransferase 2)	-1.39	inactive
SHMT2 (serine hydroxymethyltransferase 2)	-0.25	inactive
SHMT2 (serine hydroxymethyltransferase 2)	-0.17	inactive
SHMT2 (serine hydroxymethyltransferase 2)	-0.43	inactive
ALDH3A1 (aldehyde dehydrogenase 3 family member A1)	0.54	inactive
ALDH3A1 (aldehyde dehydrogenase 3 family member A1)	1.99	inactive
ALDH3A1 (aldehyde dehydrogenase 3 family member A1)	0.14	inactive
ALDH3A1 (aldehyde dehydrogenase 3 family member A1)	2.61	inactive
PDZD9 (PDZ domain containing 9)	-0.61	inactive
PDZD9 (PDZ domain containing 9)	-0.48	inactive
PDZD9 (PDZ domain containing 9)	0.09	inactive
PDZD9 (PDZ domain containing 9)	-0.32	inactive
RHOJ (ras homolog family member J)	-0.58	inactive
RHOJ (ras homolog family member J)	-0.83	inactive
RHOJ (ras homolog family member J)	-1.13	inactive
RHOJ (ras homolog family member J)	-0.3	inactive
RNF216 (ring finger protein 216)	0.73	inactive
RNF216 (ring finger protein 216)	0.12	inactive
RNF216 (ring finger protein 216)	-0.41	inactive
RNF216 (ring finger protein 216)	-0.3	inactive
CYP2S1 (cytochrome P450 family 2 subfamily S member 1)	1.1	inactive
CYP2S1 (cytochrome P450 family 2 subfamily S member 1)	1.49	inactive
CYP2S1 (cytochrome P450 family 2 subfamily S member 1)	1.68	inactive
CYP2S1 (cytochrome P450 family 2 subfamily S member 1)	2.08	inactive
SYT6 (synaptotagmin 6)	0.17	inactive
SYT6 (synaptotagmin 6)	1.06	inactive
SYT6 (synaptotagmin 6)	0.12	inactive
SYT6 (synaptotagmin 6)	0.56	inactive
LGR6 (leucine rich repeat containing G protein-coupled receptor 6)	-0.75	inactive
LGR6 (leucine rich repeat containing G protein-coupled receptor 6)	-0.06	inactive
LGR6 (leucine rich repeat containing G protein-coupled receptor 6)	-0.58	inactive
LGR6 (leucine rich repeat containing G protein-coupled receptor 6)	-0.5	inactive
BFAR (bifunctional apoptosis regulator)	1.68	inactive
BFAR (bifunctional apoptosis regulator)	1.93	inactive
BFAR (bifunctional apoptosis regulator)	-1.34	inactive
BFAR (bifunctional apoptosis regulator)	-0.58	inactive
HSD17B14 (hydroxysteroid 17-beta dehydrogenase 14)	2.63	inactive
HSD17B14 (hydroxysteroid 17-beta dehydrogenase 14)	2.06	inactive
HSD17B14 (hydroxysteroid 17-beta dehydrogenase 14)	1.59	inactive
HSD17B14 (hydroxysteroid 17-beta dehydrogenase 14)	0.83	inactive
SHANK3 (SH3 and multiple ankyrin repeat domains 3)	0.9	inactive
SHANK3 (SH3 and multiple ankyrin repeat domains 3)	0.64	inactive
SHANK3 (SH3 and multiple ankyrin repeat domains 3)	2.08	inactive
SHANK3 (SH3 and multiple ankyrin repeat domains 3)	1.88	inactive
RNF166 (ring finger protein 166)	0.03	inactive
RNF166 (ring finger protein 166)	-0.21	inactive
RNF166 (ring finger protein 166)	-0.66	inactive
RNF166 (ring finger protein 166)	1.11	inactive
HSFY2 (heat shock transcription factor Y-linked 2)	0.98	inactive
HSFY2 (heat shock transcription factor Y-linked 2)	3.19	active
HSFY2 (heat shock transcription factor Y-linked 2)	3.97	active
HSFY2 (heat shock transcription factor Y-linked 2)	1.8	inactive
IDH3B	-0.91	inactive
IDH3B	-1	inactive
IDH3B	-1.12	inactive
IDH3B	-0.43	inactive
HBS1L (HBS1 like translational GTPase)	1.61	inactive
HBS1L (HBS1 like translational GTPase)	1.7	inactive
HBS1L (HBS1 like translational GTPase)	-0.18	inactive
HBS1L (HBS1 like translational GTPase)	3.92	active
GTF2I (general transcription factor IIi)	-0.32	inactive
GTF2I (general transcription factor IIi)	0.45	inactive
GTF2I (general transcription factor IIi)	-0.16	inactive
GTF2I (general transcription factor IIi)	-1.27	inactive
NCS1 (neuronal calcium sensor 1)	-0.73	inactive
NCS1 (neuronal calcium sensor 1)	-0.95	inactive
NCS1 (neuronal calcium sensor 1)	-0.51	inactive
NCS1 (neuronal calcium sensor 1)	-0.36	inactive
VWCE (von Willebrand factor C and EGF domains)	-0.76	inactive
VWCE (von Willebrand factor C and EGF domains)	-0.4	inactive
VWCE (von Willebrand factor C and EGF domains)	-1.18	inactive
VWCE (von Willebrand factor C and EGF domains)	0.44	inactive
KCNG3	0.6	inactive
KCNG3	-0.7	inactive
KCNG3	-0.2	inactive
KCNG3	-1.52	active
CACNA1I (calcium voltage-gated channel subunit alpha1 I)	-1.29	inactive
CACNA1I (calcium voltage-gated channel subunit alpha1 I)	-0.85	inactive
CACNA1I (calcium voltage-gated channel subunit alpha1 I)	-0.33	inactive
CACNA1I (calcium voltage-gated channel subunit alpha1 I)	-0.35	inactive
RNF103 (ring finger protein 103)	-0.84	inactive
RNF103 (ring finger protein 103)	2.16	inactive
RNF103 (ring finger protein 103)	-0.87	inactive
RNF103 (ring finger protein 103)	0.46	inactive
